Measurements: the supplement of paper PMC10849652
Some of the results follow.

Protein sequences, listed by entry. Tags and fused reporters are not part of them. Lines headed by an entry give the natural chain unless they say otherwise; changes in a name come on top.
UniProt P51659: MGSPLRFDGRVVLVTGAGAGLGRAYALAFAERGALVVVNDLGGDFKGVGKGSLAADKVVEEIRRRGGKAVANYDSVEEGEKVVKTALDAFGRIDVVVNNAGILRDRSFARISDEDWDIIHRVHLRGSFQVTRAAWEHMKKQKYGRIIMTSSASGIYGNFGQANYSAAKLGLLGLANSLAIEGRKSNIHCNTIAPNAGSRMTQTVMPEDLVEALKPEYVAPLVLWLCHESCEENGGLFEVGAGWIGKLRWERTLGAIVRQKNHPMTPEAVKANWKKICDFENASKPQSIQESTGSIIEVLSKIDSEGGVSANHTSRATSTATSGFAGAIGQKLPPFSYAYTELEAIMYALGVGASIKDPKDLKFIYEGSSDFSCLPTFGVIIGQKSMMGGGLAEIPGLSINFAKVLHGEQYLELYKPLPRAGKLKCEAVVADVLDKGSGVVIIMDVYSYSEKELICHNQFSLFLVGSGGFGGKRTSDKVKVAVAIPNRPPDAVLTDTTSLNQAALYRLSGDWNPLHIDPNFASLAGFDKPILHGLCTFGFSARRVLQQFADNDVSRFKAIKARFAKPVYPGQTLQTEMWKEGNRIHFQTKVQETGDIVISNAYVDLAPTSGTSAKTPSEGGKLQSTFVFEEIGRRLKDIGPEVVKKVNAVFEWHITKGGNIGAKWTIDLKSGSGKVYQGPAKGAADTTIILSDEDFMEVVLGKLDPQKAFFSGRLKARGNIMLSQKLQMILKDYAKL
UniProt O75146: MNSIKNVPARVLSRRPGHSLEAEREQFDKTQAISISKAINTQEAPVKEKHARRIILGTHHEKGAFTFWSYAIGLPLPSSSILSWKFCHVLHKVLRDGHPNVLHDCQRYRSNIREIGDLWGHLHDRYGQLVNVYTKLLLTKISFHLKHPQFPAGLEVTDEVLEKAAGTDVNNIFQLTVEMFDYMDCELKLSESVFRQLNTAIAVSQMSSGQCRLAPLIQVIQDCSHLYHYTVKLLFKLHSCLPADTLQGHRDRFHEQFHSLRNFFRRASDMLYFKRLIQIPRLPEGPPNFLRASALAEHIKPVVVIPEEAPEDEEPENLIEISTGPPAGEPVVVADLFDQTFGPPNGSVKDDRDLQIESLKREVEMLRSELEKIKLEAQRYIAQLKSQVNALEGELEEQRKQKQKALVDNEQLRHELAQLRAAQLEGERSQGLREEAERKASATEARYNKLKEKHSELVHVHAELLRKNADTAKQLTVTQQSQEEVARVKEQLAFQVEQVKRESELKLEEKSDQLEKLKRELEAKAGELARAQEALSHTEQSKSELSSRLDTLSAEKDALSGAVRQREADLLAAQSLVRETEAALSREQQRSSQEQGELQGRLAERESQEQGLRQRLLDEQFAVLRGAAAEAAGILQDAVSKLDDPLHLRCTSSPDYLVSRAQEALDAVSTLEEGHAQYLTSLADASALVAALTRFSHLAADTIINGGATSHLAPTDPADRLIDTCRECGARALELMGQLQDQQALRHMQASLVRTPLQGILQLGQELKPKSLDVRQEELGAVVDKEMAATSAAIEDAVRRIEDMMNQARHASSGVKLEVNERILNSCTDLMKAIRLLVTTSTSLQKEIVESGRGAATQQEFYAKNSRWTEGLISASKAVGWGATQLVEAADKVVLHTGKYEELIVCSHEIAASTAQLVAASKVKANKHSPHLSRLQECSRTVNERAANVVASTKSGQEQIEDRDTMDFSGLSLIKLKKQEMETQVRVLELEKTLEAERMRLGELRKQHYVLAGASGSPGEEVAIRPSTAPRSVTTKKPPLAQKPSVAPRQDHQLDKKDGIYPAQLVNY
UniProt O43390: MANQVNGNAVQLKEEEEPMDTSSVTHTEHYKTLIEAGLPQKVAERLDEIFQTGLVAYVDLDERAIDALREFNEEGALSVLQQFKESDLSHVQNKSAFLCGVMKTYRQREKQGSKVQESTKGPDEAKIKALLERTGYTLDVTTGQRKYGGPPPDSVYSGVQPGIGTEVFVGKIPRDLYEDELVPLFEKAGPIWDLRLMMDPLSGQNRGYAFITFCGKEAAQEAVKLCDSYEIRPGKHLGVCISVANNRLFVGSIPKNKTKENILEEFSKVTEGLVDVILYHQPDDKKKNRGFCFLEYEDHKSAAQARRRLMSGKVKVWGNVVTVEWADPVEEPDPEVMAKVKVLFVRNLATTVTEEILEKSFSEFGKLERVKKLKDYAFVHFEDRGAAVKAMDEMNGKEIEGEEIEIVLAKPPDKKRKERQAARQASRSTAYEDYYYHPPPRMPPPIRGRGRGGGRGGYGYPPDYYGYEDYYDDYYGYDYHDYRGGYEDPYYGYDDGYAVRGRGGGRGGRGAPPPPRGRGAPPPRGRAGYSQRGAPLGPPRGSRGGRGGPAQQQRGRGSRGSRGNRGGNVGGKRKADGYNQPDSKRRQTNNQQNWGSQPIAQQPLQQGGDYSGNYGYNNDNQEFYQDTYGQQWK
UniProt P54652, whole entry, looked up: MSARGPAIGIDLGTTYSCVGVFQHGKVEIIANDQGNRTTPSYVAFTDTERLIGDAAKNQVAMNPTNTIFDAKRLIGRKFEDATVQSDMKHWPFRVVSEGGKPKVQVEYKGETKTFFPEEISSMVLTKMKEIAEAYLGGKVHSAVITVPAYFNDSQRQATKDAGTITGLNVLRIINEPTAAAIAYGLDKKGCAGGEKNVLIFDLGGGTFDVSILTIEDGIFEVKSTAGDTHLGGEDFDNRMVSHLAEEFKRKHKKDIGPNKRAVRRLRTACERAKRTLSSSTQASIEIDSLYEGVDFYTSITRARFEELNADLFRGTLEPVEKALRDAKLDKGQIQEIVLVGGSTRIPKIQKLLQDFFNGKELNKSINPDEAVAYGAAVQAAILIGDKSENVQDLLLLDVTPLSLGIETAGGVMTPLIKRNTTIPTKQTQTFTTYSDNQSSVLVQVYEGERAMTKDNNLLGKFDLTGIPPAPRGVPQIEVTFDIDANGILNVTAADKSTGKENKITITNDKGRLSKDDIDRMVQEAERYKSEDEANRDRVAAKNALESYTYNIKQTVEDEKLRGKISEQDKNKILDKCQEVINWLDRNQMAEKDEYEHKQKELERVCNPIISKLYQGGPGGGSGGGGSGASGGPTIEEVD
UniProt Q86VS8: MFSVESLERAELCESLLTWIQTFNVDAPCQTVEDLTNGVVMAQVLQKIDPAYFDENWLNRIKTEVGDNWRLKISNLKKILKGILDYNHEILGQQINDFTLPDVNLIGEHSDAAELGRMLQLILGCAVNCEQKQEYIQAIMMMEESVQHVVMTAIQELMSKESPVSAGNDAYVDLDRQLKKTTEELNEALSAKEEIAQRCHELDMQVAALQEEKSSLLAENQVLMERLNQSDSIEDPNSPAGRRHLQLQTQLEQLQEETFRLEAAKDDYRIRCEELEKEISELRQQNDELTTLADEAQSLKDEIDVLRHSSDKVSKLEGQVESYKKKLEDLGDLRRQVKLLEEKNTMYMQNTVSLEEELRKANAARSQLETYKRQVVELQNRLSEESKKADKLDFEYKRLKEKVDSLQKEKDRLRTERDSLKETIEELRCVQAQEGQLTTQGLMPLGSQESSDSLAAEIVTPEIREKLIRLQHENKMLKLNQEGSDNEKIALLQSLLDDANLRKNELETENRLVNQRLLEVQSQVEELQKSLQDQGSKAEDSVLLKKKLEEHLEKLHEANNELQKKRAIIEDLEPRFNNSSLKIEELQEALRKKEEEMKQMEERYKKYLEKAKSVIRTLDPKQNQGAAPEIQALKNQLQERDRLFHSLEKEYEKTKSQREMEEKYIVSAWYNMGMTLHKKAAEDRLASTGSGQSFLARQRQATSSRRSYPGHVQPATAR
UniProt Q8TCT9: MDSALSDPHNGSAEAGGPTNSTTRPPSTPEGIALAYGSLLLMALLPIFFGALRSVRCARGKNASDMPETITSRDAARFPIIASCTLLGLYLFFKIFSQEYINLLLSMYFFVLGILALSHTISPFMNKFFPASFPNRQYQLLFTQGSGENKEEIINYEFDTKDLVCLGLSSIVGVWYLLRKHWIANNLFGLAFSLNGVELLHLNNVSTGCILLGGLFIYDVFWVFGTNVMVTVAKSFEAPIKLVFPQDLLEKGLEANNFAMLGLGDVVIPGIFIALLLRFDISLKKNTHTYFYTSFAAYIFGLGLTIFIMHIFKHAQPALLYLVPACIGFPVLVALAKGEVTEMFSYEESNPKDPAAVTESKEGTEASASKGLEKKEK
UniProt P49773: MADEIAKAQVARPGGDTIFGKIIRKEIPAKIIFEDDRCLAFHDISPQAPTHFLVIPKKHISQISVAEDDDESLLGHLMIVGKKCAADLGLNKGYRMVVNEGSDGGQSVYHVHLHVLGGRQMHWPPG
UniProt Q9BXL5: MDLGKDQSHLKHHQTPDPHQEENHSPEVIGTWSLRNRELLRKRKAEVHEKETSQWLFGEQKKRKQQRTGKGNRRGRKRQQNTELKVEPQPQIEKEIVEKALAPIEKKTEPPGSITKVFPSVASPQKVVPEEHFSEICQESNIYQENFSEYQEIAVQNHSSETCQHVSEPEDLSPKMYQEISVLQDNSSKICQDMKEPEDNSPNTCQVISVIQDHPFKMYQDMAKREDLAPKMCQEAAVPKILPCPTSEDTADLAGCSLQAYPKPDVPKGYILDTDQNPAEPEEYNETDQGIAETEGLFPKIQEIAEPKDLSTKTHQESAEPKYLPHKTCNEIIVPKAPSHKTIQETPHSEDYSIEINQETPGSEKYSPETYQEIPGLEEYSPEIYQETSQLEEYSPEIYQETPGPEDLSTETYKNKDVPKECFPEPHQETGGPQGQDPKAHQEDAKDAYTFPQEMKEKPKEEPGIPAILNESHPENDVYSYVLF
UniProt Q9UPZ3: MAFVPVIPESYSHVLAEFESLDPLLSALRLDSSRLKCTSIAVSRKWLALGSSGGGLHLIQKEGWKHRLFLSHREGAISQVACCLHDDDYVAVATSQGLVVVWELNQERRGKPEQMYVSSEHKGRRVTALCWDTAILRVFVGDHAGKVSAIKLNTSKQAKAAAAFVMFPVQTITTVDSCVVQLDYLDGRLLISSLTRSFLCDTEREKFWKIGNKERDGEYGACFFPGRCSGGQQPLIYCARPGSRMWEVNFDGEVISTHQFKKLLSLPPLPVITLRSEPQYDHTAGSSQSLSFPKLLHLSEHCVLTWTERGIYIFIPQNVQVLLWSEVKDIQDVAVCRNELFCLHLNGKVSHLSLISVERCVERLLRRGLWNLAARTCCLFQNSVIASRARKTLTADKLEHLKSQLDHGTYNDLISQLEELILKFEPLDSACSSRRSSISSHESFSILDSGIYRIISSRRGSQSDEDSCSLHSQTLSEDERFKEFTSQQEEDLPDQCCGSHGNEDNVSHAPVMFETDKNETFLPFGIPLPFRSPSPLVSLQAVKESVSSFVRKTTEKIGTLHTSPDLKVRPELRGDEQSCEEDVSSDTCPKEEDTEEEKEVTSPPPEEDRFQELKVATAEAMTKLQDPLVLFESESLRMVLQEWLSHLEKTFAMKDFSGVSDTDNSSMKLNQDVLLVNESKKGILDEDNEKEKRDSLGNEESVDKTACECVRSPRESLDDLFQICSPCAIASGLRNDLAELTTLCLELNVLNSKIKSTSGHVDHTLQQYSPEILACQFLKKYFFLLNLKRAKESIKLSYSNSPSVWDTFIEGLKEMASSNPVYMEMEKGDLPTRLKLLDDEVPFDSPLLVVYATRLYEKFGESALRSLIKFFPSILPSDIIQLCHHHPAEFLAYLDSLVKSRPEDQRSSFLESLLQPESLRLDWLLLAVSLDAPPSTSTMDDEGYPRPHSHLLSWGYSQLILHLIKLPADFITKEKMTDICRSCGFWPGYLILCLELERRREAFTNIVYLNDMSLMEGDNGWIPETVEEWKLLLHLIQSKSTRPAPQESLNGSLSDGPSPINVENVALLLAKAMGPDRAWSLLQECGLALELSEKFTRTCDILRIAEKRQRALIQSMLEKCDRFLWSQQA
UniProt P35914: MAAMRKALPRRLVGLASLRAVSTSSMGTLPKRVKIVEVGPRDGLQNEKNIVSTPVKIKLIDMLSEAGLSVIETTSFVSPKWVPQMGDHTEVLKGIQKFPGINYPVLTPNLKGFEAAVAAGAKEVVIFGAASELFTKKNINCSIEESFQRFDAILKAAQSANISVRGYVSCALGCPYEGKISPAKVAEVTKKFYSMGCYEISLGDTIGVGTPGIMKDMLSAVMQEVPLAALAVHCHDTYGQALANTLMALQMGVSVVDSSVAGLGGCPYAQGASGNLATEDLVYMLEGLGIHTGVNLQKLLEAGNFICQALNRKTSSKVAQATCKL
UniProt Q96FZ2: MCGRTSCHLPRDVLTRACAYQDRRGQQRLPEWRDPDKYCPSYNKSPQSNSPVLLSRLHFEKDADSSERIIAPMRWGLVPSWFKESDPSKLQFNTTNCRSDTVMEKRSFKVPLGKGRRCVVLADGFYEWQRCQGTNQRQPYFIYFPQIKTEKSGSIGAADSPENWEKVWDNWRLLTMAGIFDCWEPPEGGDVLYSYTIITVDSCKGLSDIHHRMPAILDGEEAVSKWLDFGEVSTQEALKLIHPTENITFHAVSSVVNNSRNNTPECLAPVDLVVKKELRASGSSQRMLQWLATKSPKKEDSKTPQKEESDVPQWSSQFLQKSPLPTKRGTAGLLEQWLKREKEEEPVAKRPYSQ

Compound: C1=CC=C(C=C1)[C@H](COC2=CC3=C(C=C2)NC(=O)N3)NC(=O)C4=CC=CN(C4=O)CC5=CC(=C(C=C5)F)F
Assay: log2 fold change, soluble protein after heating vs DMSO (PISA); higher = thermal stabilisation; K562 lysate, 10 uM; active = over 0.2 and 3.5 SD of the protein, either way, in both replicates (recomputed)
Method in brief: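 To prepare the extract, K562 pellets were dounce-homogenised in PBS pH 7.4 with 1 mM MgCl2, giving crude material at 1 mg/mL protein. This was treated with 10 μM compound for 30 min, then heated in aliquots for 3 min over 48°C-58°C before pooling and addition of NP-40 to 0.5% at 4°C. Centrifugation at 21,000xg for 90 min left soluble protein in the supernatant, which TMTpro 16plex LC-MS/MS quantified with equalised channel sums. Results are log-two fold changes in thermal stability compared with solvent controls, from duplicates.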

Target	log2 fold change
HIC2 (UniProt Q96JB3)	inactive: -0.039
HP1BP3 (UniProt Q5SSJ5)	inactive: 0.007
HSD17B4 (UniProt P51659)	inactive: -0.021
HS2ST1 (UniProt Q7LGA3)	inactive: 0.066
HIBCH (UniProt Q6NVY1)	inactive: -0.004
HSDL1 (UniProt Q3SXM5)	inactive: 0.005
HEATR5B (UniProt Q9P2D3)	inactive: 0.008
HIP1R (UniProt O75146)	inactive: -0.039
HNRNPR isoform 2 (UniProt O43390)	inactive: 0.009
HNRNPAB isoform 3 (UniProt Q99729)	inactive: -0.015
HSP90AA1 isoform 2 (UniProt P07900)	inactive: 0.002
HOMER1 (UniProt Q86YM7)	inactive: -0.003
HNRNPH3 (UniProt P31942)	inactive: -0.027
HSPA2 (UniProt P54652)	inactive: 0.037
HOOK3 (UniProt Q86VS8)	inactive: 0.043
HEXIM1 (UniProt O94992)	inactive: -0.001
HSP90AB1 (UniProt P08238)	inactive: 0.016
HNRNPC (UniProt P07910)	inactive: -0.008
HK1 isoform 2 (UniProt P19367)	inactive: -0.017
HLTF (UniProt Q14527)	inactive: -0.053

A second format for part of the listing above:
Target | log2 fold change
HEATR5B (UniProt Q9P2D3) | inactive: 0.008
HIP1R (UniProt O75146) | inactive: -0.039
HNRNPR isoform 2 (UniProt O43390) | inactive: 0.009

(continued)

Target	log2 fold change
HIST2H2BC (UniProt Q6DN03)	inactive: -0.03
HSP90AA4P (UniProt Q58FG1)	inactive: 0.012
HM13 (UniProt Q8TCT9)	inactive: -0.036
HINT1 (UniProt P49773)	inactive: -0.033
HEMGN (UniProt Q9BXL5)	inactive: 0.018
HSBP1 (UniProt O75506)	inactive: 0.018
HMG20B (UniProt Q9P0W2)	inactive: -0.014
HERC2 (UniProt O95714)	inactive: 0.005
HPF1 (UniProt Q9NWY4)	inactive: -0.013
HSPA1A (UniProt P0DMV8)	inactive: 0.034
HNRNPA2B1 (UniProt P22626)	inactive: -0.01
HPS5 (UniProt Q9UPZ3)	inactive: -0.059
HEBP1 (UniProt Q9NRV9)	inactive: 0.168
HNRNPDL (UniProt O14979)	inactive: 0.033
HMGCL (UniProt P35914)	inactive: 0.057
HNRNPUL1 (UniProt Q9BUJ2)	inactive: 0.043
HNRNPUL2 (UniProt Q1KMD3)	inactive: 0.011
HOXB4 (UniProt P17483)	inactive: -0.053
HIBADH (UniProt P31937)	inactive: 0.005
HMCES (UniProt Q96FZ2)	inactive: -0.004
